Measurements published in patent publication EP1949899A1, “Metal salophen complexes use in prevention and treatment of cancer” (Freie Universität Berlin, priority 2007, dated 2008).

Experiments:
Assay type in all cases: cell-based
[1] = tested on: LNCaP-FGC-cells; assay: Time dependent test (crystal violet assay) on LNCaP-FGC-cells
Method: The time dependent tests were performed according to Reile, H. et al.: "Computerized Determination of Growth Kinetic Curves and Doubling Times from Cells in Microculture", Analytical Biochemistry, 1990, 187 (2): 262-267; Bernhardt, G. et al.: "Standardized kinetic microassay to quantifiy differential chemosensitivity on the basis of proliferative activity", Journal of Research Clin. Oncol., 1992, 118: 35-43 and Gust, R. et al.: "Development of Cobalt(3,4-diarylsalen) Complexes as Tumor Therapeutics", Journal of Medicinal Chemistry, 2004, 47 (24): 5837-5846.
Determining the cell mass in the crystal violet assay the interpretation of the received values was the following: […]

[2] = tested on: MDA-MB-231 cells; assay: Time dependent test (crystal violet assay) on MDA-MB-231 cells
[3] = tested on: MCF-7 cells; assay: Time dependent test (crystal violet assay) on MCF-7 cells
[4] = tested on: HeLa cells; assay: Time dependent test (crystal violet assay) on HeLa cells

| Structure (SMILES) | time of minimum T/Ccorr- resp. τ-value ([1]; 0.5 µM) | time of minimum T/Ccorr- resp. τ-value ([1]; 1 µM) | time of minimum T/Ccorr- resp. τ-value ([1]; 5 µM) | time of minimum T/Ccorr- resp. τ-value ([1]; 0.1 µM) | time of minimum T/Ccorr- resp. τ-value ([2]; MDA-MB-231, 0.05 µM) | time of minimum T/Ccorr- resp. τ-value ([2]; MDA-MB-231, 0.1 µM) | time of minimum T/Ccorr- resp. τ-value ([2]; MDA-MB-231, 0.5 µM) | time of minimum T/Ccorr- resp. τ-value ([2]; MDA-MB-231, 1 µM) | time of minimum T/Ccorr- resp. τ-value ([3]; MCF-7, 0.05 µM) | time of minimum T/Ccorr- resp. τ-value ([3]; MCF-7, 0.1 µM) | time of minimum T/Ccorr- resp. τ-value ([3]; MCF-7, 0.5 µM) | time of minimum T/Ccorr- resp. τ-value ([3]; MCF-7, 1 µM) | time of minimum T/Ccorr- resp. τ-value ([4]; 0.1 µM) | time of minimum T/Ccorr- resp. τ-value ([4]; 0.5 µM) | time of minimum T/Ccorr- resp. τ-value ([4]; 1 µM) |
| --- | --- | --- | --- | --- | --- | --- | --- | --- | --- | --- | --- | --- | --- | --- | --- |
| N.N.O=C([O-])C1(C(=O)[O-])CCC1.[Pt+2] [Carboplatin] | 73 h | 46 h | 73 h |  |  |  |  |  |  |  |  |  |  |  |  |
| [Fe+2].[O-]c1ccccc1C=Nc1ccccc1N=Cc1ccccc1[O-] [Fe(II)salophen, [N,N'-Bis(salicylidene)phenylene-1,2-diamine]-iron(II)] | 95 h | 160 h |  | 69 h | 49 h | 71 h | 47 h | 47 h | 71 h | 71 h | 71 h | 138 h |  |  |  |
| [Cl-].[Fe+3].[O-]c1ccccc1C=Nc1ccccc1N=Cc1ccccc1[O-] [Fe(III)salophen chloride, [N,N'-Bis(salicylidene)phenylene-1,2-diamine]-iron(III)-chloride] | 90 h | 90 h |  | 71 h | 53 h | 69 h | 122 h | 53 h | 166 h | 72 h | 72 h | 166 h | 51 h | 51 h | 77 h |
| O=C1[O][Pt]2([NH][C@@H]3CCCC[C@H]3[NH]2)[O]C1=O [Oxaliplatin] | 124 h | 124 h | 98 h |  |  |  |  |  |  |  |  |  |  |  |  |
| N.N.[Cl][Pt][Cl] [cisplatin, reference compound] | 98 h | 124 h | 124 h |  |  |  | 72 h | 72 h |  |  | 172 h | 172 h |  | 72 h | 91 h |
